Patent US20140249298A1
These are yes or no findings as the source states them, for the method shown. Some binding calls cover weakened binding; strength is not graded here.

Experiments:
[1] = molecular target: T1, synthetic hENT1 peptide AC-…-amide (SEQ ID NO: 59) coupled to BSA (human); test: ELISA
T1 sequence (peptide, N-terminal acetyl (Ac-), C-terminal amide; coupled to BSA): SKGEEPRAGKEESGVSVSC

[2] = molecular target: T1, synthetic hENT1 peptide AC-…-amide (SEQ ID NO: 59) coupled to BSA (human); test: peptide ELISA, BSA-peptide coated at 2 ug/ml, purified samples at 1/5000, goat anti-mouse IgG-HRP detection
[3] = molecular target: T1, synthetic hENT1 peptide AC-…-amide (SEQ ID NO: 59) coupled to BSA (human); test: peptide ELISA
[4] = molecular target: T1, synthetic hENT1 peptide AC-…-amide (SEQ ID NO: 59) coupled to BSA (human); test: peptide ELISA, 100-fold concentrated conditioned medium at dilutions of 1/10 to 1/640

Measured: binding

B1: recombinant murine IgG1 kappa anti-hENT1 antibody, variable regions derived from the 10D7G2 hybridoma, transiently expressed in CHO cells (antibody, V domains shown)
VH: QVHLQQSGAELVRPGASVTLPCKASGYTFTDYEMHWVKQTPVHGLEWIGAIDPETGAIVYNQKFKGKATLTADKSSNTAYMELRSLTSEDSAVYYCTREFTYWGQGTLVTVSA
VL: DVLMTQTPLTLSVTIGQPASVSCRSSQSLLFSNGKTYLNWLFQRPGQSPKRLIYLVSKLNSGVPDRFTGTGSGTDFSLKISRVEAEDLGVYYCVQGTHFPWTFGGGTKLEIKR
binds: [1] | [2] | [3] | [4]
